The values below come from doi:10.1101/2025.07.08.663435 (bioRxiv, 2025).

The exact form of at least one protein or probe is not confirmed. At least one verdict was read from the data and is not stated in words by the source. Protein sequences can lack the tags named with them.

For this series, the target named is T1, SMCHD1 hinge domain (UniProt A6NHR9).
T1 sequence (looked up): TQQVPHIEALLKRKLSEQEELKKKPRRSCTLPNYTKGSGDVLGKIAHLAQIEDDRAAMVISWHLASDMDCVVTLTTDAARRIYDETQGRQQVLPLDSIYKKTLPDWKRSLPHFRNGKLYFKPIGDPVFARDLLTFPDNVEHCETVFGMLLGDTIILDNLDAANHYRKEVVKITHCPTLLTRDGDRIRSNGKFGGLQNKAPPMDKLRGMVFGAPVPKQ
Nature of the series: EMSA. The following applies: 0.5-50 uM protein, 2 mM Mg2+; residues 1682-1898.

Take “CCTAGGCTACACCTACTCTTTGTAAGAATTAAGCTTC (double strand) [FAM 37 bp duplex]”: the binding result is “binds”.
